In PubChem BioAssay AID493014 (National Center for Advancing Translational Sciences (NCATS), 2011) one finds AC50 data, which are given here for 64 compounds.

The assay in a line: qHTS Assay to Find Inhibitors of Chronic Active B-Cell Receptor Signaling. Conditions: ABC-DLBCL IkBa-CBG/CBR reporter, luminescence ratio (green luciferase fused to IkBa over red control in TMD8 lymphoma cells), 4 h. Summed up:
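Doxycycline induced both beetle luciferases in TMD8 lymphoma cells; IKK-driven degradation limits the IkappaBalpha-fused green signal, while red luminescence normalises for cell number and nonspecific effects. Compounds tested up to 46 uM, 4 hrs.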

Setting [1] is: measured here: CBR red luminescence, cell number.
Where [2] appears, read: measured here: IkBa-CBG green luminescence.

The list shows a part of the results. Further columns of the screen follow, without active or inactive calls. Compounds called inactive in the main read-out are mostly missing here. Potencies come from curve fits of mixed quality, noted in brackets.

Take `O=S(=O)(Cc1ccccc1Cl)NCCOc1ccccc1`: the AC50 (commonly the concentration giving half of the maximal activity seen) under setting [1] is 2.06 µM [rising, full curve].

`COc1ccccc1-c1cc(C(=O)N2CCN(c3ccccc3OC)CC2)no1`: under setting [1], the AC50 is 3.98 µM [falling, full curve]. Same read-out and setting: in the case of `COc1ccc(OC)c2c1sc(=NC(=O)C(C)C)n2C` it was 2.31 µM [falling, full curve]; in that of `O=C1CNC(=S)N1c1nc2ccccc2s1`, 10 µM [falling, partial curve, poor fit]. Take `COc1ccc(OC)c(C2CC(=O)c3c([nH]c(C(=O)OC(C)C)c3C)C2)c1` (stereo not drawn): the AC50 is 4.61 µM [rising, full curve, poor fit] under setting [1] and 4.11 µM [falling, full curve, poor fit] under setting [2]. Take `CCn1c(COc2ccc3c(c2)OCO3)nnc1SCC(=O)c1ccccc1`: the AC50 under setting [1] is 0.058 µM [falling, full curve, poor fit]. `COc1ccc2cnn(-c3ccccc3C)c(=O)c2c1OC`: the half-maximal activity concentration (AC50) under setting [1] was 29.1 µM [falling, single point]. The same measure, in the same setting: in the case of `CC(C)Sc1ccc([N+](=O)[O-])cc1C(=O)Nc1ccncc1` it was 15.8 µM [rising, partial curve]; in that of `COCCCNC(=O)c1cc(Sc2nnc(C)s2)nc2ccccc12`, 31.6 µM [rising, single point]; in that of `CCCN(CC1CC1)C(=O)CSc1nnc(-c2cc(-c3cccs3)nc3ccccc23)o1`, 1.64 µM [rising, partial curve, poor fit]. Still for that read-out and setting: in the case of `CCOc1cc(/C=N/Nc2nc3ccccc3[nH]2)cc(Br)c1OCC(=O)N(C)C` it was 14.1 µM [falling, partial curve, poor fit]; in that of `COc1cccc(NC(=O)CN(C)C(=O)CNC(=O)c2sc3ccccc3c2Cl)c1`, 29.1 µM [falling, single point]; in that of `COc1ccc(Cl)cc1N/C(N)=N/c1nc(C)cc(C)n1`, 2.82 µM [rising, single point].

Consider `Cc1ccc2c(c1)C1CN(C)CCC1N2Sc1ccccc1[N+](=O)[O-]` (stereo not drawn), for which the half-maximal activity concentration (AC50) under setting [1] is 14.1 µM [falling, partial curve, poor fit]. On the same count and under the same terms, the result for `COc1ccc2cc(C(=O)OC(C)C)sc(=O)c2c1OC` reads 4.47 µM [rising, partial curve]; that for `Cc1c(NC(=O)CCCCCN2C(=O)C3C4C=CC(C4)C3C2=O)c(=O)n(-c2ccccc2)n1C` (stereo not drawn), 18.4 µM [rising, single point]. Same read-out and setting: the result for `Cc1oc(-c2ccc(F)cc2)nc1CN1CCCC(C(=O)N2CCOCC2)C1` (stereo not drawn) reads 35.5 µM [rising, partial curve, poor fit]. As for `COC(=O)c1cc(COc2ccc3oc(C)c(C(=O)OC)c3c2)c(C)o1`, the AC50 reads like this: under setting [1], 20.6 µM [falling, single point]; under setting [2], 16.4 µM [rising, partial curve, poor fit]. For the compound `Cc1sc2ncn(CC(=O)NCCN(C)C)c(=O)c2c1S(=O)(=O)N1CCC(C)CC1`, under setting [1], the half-maximal activity concentration (AC50) is 0.316 µM [falling, full curve]. Same read-out and setting: the result for `COc1ccccc1NC(=O)C(C)OC(=O)CN1C(=O)C2CC=CCC2C1=O` (stereo not drawn) reads 6.51 µM [rising, partial curve, poor fit]; that for `CCOC(=O)Cc1nnc2c(Nc3ccc(Cl)cc3)nc3nonc3n12`, 29.1 µM [falling, single point]; that for `COC(=O)c1ccccc1S(=O)(=O)N1CCC(C(=O)OCC(=O)c2ccccc2OC)CC1`, 14.6 µM [rising, single point]. The same measure, in the same setting: in the case of `CCOc1ccc(NC(=O)c2cccc3ccccc23)cc1` it was 2.51 µM [falling, partial curve, poor fit]. In the case of `O=S(=O)(c1ccc(Br)cc1)n1c(Cc2ccccc2)nc2ccccc21`, under setting [1], the AC50 was 5.17 µM [falling, full curve]. Consider `CCOC(=O)c1c(C)[nH]c(C)c1C(=O)COC(=O)c1cc(OC)c(OC)cc1OC`, for which, under setting [1], the concentration at half-maximal activity (AC50) is 14.1 µM [rising, partial curve, poor fit].

Take `COc1cccc(OC)c1C(=O)NC(=S)Nc1ccc2c(c1)Cc1ccccc1-2`: the AC50 under setting [1] was 29.1 µM [falling, single point].

Take `CCOc1cc(/C=C2/NC(=O)NC2=O)cc([N+](=O)[O-])c1O`: the AC50 under setting [1] was 17.8 µM [rising, single point].

As for `CCN1CCN(C(=O)c2ccc3c(c2)S(=O)(=O)c2ccccc2C3=O)CC1`, under setting [1], the AC50 was 11.2 µM [rising, partial curve, poor fit]. Still for that read-out and setting: in the case of `COc1ccc(C2SCC(=O)N2CCc2ccc(OC)c(OC)c2)cc1` (stereo not drawn) it was 3.16 µM [rising, single point]. Same read-out and setting: the result for `CCOc1ccc(OCCC(=O)Nc2ccc(F)cc2C)cc1` reads 15.8 µM [rising, single point]; that for `COc1ccc(NC(=O)c2ccc(-n3c(C)ccc3C)cc2)c(OC)c1`, 35.5 µM [falling, single point]; that for `O=c1oc(-c2ccc(Br)o2)nc2ccccc12`, 1.3 µM [falling, full curve]. Take `CN(C)S(=O)(=O)N(CC(=O)Nc1cccc(F)c1)c1ccccc1`: under setting [1], the AC50 was 32.6 µM [falling, single point]. The same measure, in the same setting: the result for `COc1ccc(-n2c(=S)[nH]c3cc(C(=O)Nc4ccc(C)c(F)c4)ccc3c2=O)c(OC)c1` reads 1.41 µM [falling, full curve]; that for `COc1ccc(N2CCN(C(=O)c3ccc(NS(=O)(=O)c4cccs4)cc3)CC2)cc1`, 0.224 µM [rising, full curve, poor fit]; that for `COc1ccc(NC(=O)CSc2nnc3ccc(-c4cccnc4)nn23)cc1`, 3.66 µM [rising, full curve, poor fit].

With `Nc1cc(=O)nc(SCC(=O)Nc2cccc3ccccc23)n1CCc1ccccc1`, the AC50 under setting [1] was 2.24 µM [falling, full curve, poor fit]. On the same count and under the same terms, the result for `Cn1c(N)nc2ccccc2c1=O` reads 2 µM [falling, partial curve, poor fit]. Take `Oc1ccc(CNc2ccccc2F)c2cccnc12`: the AC50 is, setting by setting: under setting [1], 12.6 µM [rising, partial curve, poor fit]; under setting [2], 25.1 µM [falling, partial curve, poor fit]. As to `CCOP1(=O)C=C(C(C)(C)C)OC1c1ccc(F)cc1` (stereo not drawn), under setting [1], the AC50 was 1.03 µM [rising, full curve, poor fit]. Still for that read-out and setting: in the case of `O=C(/C=C/c1ccccc1)NNC1=NS(=O)(=O)c2ccccc21` it was 35.5 µM [falling, single point]; in that of `Cc1ccc2oc3nc(C)c(C(=O)O)cc3c(=O)c2c1`, 0.398 µM [falling, full curve, poor fit]. Same read-out and setting: the result for `CC(=O)c1ccc(N2CCN(C(=O)Cc3cccs3)CC2)cc1` reads 6.31 µM [rising, single point]; that for `CC1CCN(c2nc(N3CCCCC3)nc(N3CCCCC3)n2)CC1`, 3.55 µM [rising, partial curve, poor fit].

As for `COc1ccccc1NC(=O)Nc1ccnn1C1CCN(C(=O)c2cccnc2)CC1`, under setting [1], the AC50 is 11.2 µM [falling, single point].

`CCOC(=O)c1ccc(-n2nc(C)cc2C)cc1`: the AC50 under setting [1] was 8.91 µM [rising, partial curve, poor fit]. The same measure, in the same setting: the result for `COc1ccc(CCNc2nc(N3CCCCC3)nc(N3CCCCC3)n2)cc1OC` reads 0.82 µM [rising, full curve, poor fit]. As to `CC(=O)Nc1ccc(NC(=O)c2ccc3c(c2)CCN3S(C)(=O)=O)cc1`, the AC50 under setting [1] is 35.5 µM [rising, single point].

With `C=CCNCCCCOc1ccc(OCc2ccccc2)cc1`, under setting [1], the AC50 is 1.41 µM [rising, partial curve, poor fit]. The same measure, in the same setting: in the case of `CCC(C(=O)Nc1sc(C(N)=O)c(C)c1C(=O)OC)c1ccccc1` (stereo not drawn) it was 17.8 µM [falling, single point]; in that of `CCn1nnc(NC(=O)C(c2ccccc2)c2ccccc2)n1`, 12.6 µM [falling, single point]. Same read-out and setting: in the case of `COc1ccc(Br)cc1CNC(=O)C1CCCN(S(C)(=O)=O)C1` (stereo not drawn) it was 0.13 µM [rising, full curve, poor fit]. Turning to `ClCc1ncc(-c2ccc(Cl)cc2)o1`, under setting [1], the AC50 was 5.62 µM [falling, full curve, poor fit]. Still for that read-out and setting: the result for `CNc1ncnc2c1cnn2-c1ccc(C)c(C)c1` reads 15.8 µM [falling, single point].

As for `CCOc1ccc(OCC)c(NC(=O)C2COc3ccccc3O2)c1` (stereo not drawn), the AC50 under setting [1] is 5.62 µM [rising, single point].

Turning to `CN(C)CCCNc1cc(C(C)(C)C)nc2c(-c3ccc(Cl)cc3)cnn12`, the concentration at half-maximal activity (AC50) under setting [1] was 35.5 µM [falling, single point]. In the case of `CC(C)(C=O)C1=CC(=O)c2ccccc2C1=O`, the AC50 is, setting by setting: under setting [1], 9.2 µM [falling, partial curve]; under setting [2], 23.1 µM [rising, single point]. As for `CCC(=O)Nc1nc(C)c(-c2csc(Nc3ccc(C(=O)O)cc3)n2)s1`, the concentration at half-maximal activity (AC50) under setting [1] was 2 µM [falling, full curve].

For the compound `CN(C)C(=O)c1ccc(COc2ccccc2Br)o1`, the AC50 under setting [1] is 3.66 µM [rising, single point]. The same measure, in the same setting: the result for `O=C(c1ccc(-c2cccc(Cl)c2)o1)N1CCN(c2ccc([N+](=O)[O-])cc2)CC1` reads 6.51 µM [rising, single point]. On the same count and under the same terms, in the case of `CCCCOC(=O)c1ccc(Nc2ncnc3nc[nH]c23)cc1` it was 11.6 µM [rising, partial curve]; in that of `COCc1cc(C)nc(SCC(=O)Nc2ccc3c(c2)OCO3)c1C#N`, 0.651 µM [rising, partial curve, poor fit]. The same measure, in the same setting: in the case of `CCN=c1scc(C)n1/N=C/c1ccsc1` it was 2 µM [rising, full curve]; in that of `Cc1ccc(NC(=O)c2oc3ccccc3c2NC(=O)C2CC2)cc1`, 4.47 µM [falling, full curve, poor fit].
